Reference: doi:10.1101/2021.07.15.452545

By UniProt entry, the sequences of proteins in these tests, tags left out. Where a name states a change or a piece, a line headed by the entry shows the natural chain unless it says otherwise.
UniProt P63096, whole entry, looked up, stated change not applied: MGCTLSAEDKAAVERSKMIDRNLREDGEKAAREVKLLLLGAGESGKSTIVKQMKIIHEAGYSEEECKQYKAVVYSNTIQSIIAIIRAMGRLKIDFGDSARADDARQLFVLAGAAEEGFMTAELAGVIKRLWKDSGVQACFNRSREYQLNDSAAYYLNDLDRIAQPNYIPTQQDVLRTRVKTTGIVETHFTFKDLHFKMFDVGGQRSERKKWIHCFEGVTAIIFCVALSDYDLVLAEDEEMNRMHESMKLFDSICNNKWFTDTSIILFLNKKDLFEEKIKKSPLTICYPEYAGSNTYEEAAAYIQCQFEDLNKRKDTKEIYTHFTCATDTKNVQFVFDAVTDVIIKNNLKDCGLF

Target: BioID2-Gαi1-Q204L (human) (UniProt P63096)
Experiment: proximity labelling

B1: HA-PSPC1 (protein, UniProt Q8WXF1 1-523)
chain: MMLRGNLKQVRIEKNPARLRALESAVGESEPAAAAAMALALAGEPAPPAPAPPEDHPDEEMGFTIDIKSFLKPGEKTYTQRCRLFVGNLPTDITEEDFKRLFERYGEPSEVFINRDRGFGFIRLESRTLAEIAKAELDGTILKSRPLRIRFATHGAALTVKNLSPVVSNELLEQAFSQFGPVEKAVVVVDDRGRATGKGFVEFAAKPPARKALERCGDGAFLLTTTPRPVIVEPMEQFDDEDGLPEKLMQKTQQYHKEREQPPRFAQPGTFEFEYASRWKALDEMEKQQREQVDRNIREAKEKLEAEMEAARHEHQLMLMRQDLMRRQEELRRLEELRNQELQKRKQIQLRHEEEHRRREEEMIRHREQEELRRQQEGFKPNYMENREQEMRMGDMGPRGAINMGDAFSPAPAGNQGPPPMMGMNMNNRATIPGPPMGPGPAMGPEGAANMGTPMMPDNGAVHNDRFPQGPPSQMGSPMGSRTGSETPQAPMSGVGPVSGGPGGFGRGSQGGNFEGPNKRRRY
For B1, the binding was “binds”.

B2: FLAG-p54-HA (protein, UniProt Q15233 1-471)
chain: MQSNKTFNLEKQNHTPRKHHQHHHQQQHHQQQQQQPPPPPIPANGQQASSQNEGLTIDLKNFRKPGEKTFTQRSRLFVGNLPPDITEEEMRKLFEKYGKAGEVFIHKDKGFGFIRLETRTLAEIAKVELDNMPLRGKQLRVRFACHSASLTVRNLPQYVSNELLEEAFSVFGQVERAVVIVDDRGRPSGKGIVEFSGKPAARKALDRCSEGSFLLTTFPRPVTVEPMDQLDDEEGLPEKLVIKNQQFHKEREQPPRFAQPGSFEYEYAMRWKALIEMEKQQQDQVDRNIKEAREKLEMEMEAARHEHQVMLMRQDLMRRQEELRRMEELHNQEVQKRKQLELRQEEERRRREEEMRRQQEEMMRRQQEGFKGTFPDAREQEIRMGQMAMGGAMGINNRGAMPPAPVPAGTPAPPGPATMMPDGTLGLTPPTTERFGQAATMEGIGAIGGTPPAFNRAAPGAEFAPNKRRRY
For B2, the binding was “binds”.

These are yes or no findings as the source states them, for the method shown. In cells and extracts the contact can be indirect. These calls come from enrichment with a bait or labelling near it, and not all partners need be listed. Where a sequence is shown, tags or fusion partners need not be part of it.
